Structures can show the parent of a compound that is named as a salt.
Tested on: LDL receptor/ApoE deficient mice
Assay: Combination study (experiment II): plasma lipids/lipoproteins after Compound (I), atorvastatin calcium salt or both
Format: in vivo
Experimental: Atorvastatin calcium salt (40 mg tablets) was ground into fine particles and mixed into regular mouse R^3-chow which then was pelleted (0.05% w:w). Compound (I) was dissolved in polyethanylglycol (PEG):ethanol:solutol:Water (4:1:0.5:8.5) vehicle and administered by gavage once a day in the afternoon.
Altogether 54 female LDL receptor/ApoE deficient mice were used (5 to 6 weeks old weighing 25 to 30 g at the start of the study; obtained from B&M/AS, Denmark). They were kept under standardized conditions with free access to water and chow. The light-cycle hours were between 6:00 a.m. and 6:00 p.m. In experiment I, the dose response study, the mice were treated with Compound (I) by gavage once a day in the afternoon the first three days and in the morning the last day. The control group on regular R^3-chow received the vehicle by gavage. In experiment II, the combination study, atorvastatin calcium salt (0.05%) was mixed with R^3 chow. The mice received atorvastatin calcium salt (0.05% in chow) and/or Compound (I) by gavage for 7 days. The control group received R^3 chow and vehicle.
Mice were starved 3 hours before they were scarified at 10 a.m. Animals were anaesthetized with isofluran, bled by cardiac puncture, and thereafter killed by cervical dislocation. Blood was collected into EDTA containing tubes, plasma was separated by centrifugation and stored at −70° C.
Cholesterol in plasma and in FPLC on line measurement was performed with a commercial cholesterol kit from Roche Diagnostics, GmbH, Germany, Cholesterol, CHOD-PAP 1489437.
Triglycerides in plasma was measured by using a commercial reagent kit, from Roche Diagnostics, GmbH, Germany, Triglycerides/GB, 450032.
The cholesterol distribution profiles were measured by using a size exclusion high performance liquid chromatography system, SMART, with column Superose 6 PC 3.2/30, (Amersham Pharmacia Biotec, Uppsala, Sweden). The chromatographic system was linked to an air segmented continuous flow system for online post-derivatization analysis of total cholesterol by using enzymatic colorimetric reagents. The SMART-system was connected to a sample injector, (Gina 50, Gynkotek HPLC, Germering, GmbH). Elution buffer consisted of 0.01M Tris, 0.03 M NaCl, pH 7.40, flow rate 35 ml/min. […] The absorbance was measured at […] with a UV/VIS detector, (Jasco UV-970, Jasco International Co, Ltd, Japan). […] The distribution of lipoproteins was continuously measured as total cholesterol by using enzymatic calorimetric reagent, reconstituted in water, double volume compared to manufacturer instructions. […] The various peaks in the profiles are designated LP-remnants, LDL, and HDL for simplicity, even though it is clear that the separation is determined primarily by the size of the lipoproteins. […]

[1] = one week, Compound (I) 10 μmol/kg/day by gavage, atorvastatin calcium salt 0.05% in chow

## CC(C)c1c(C(=O)Nc2ccccc2)c(-c2ccccc2)c(-c2ccc(F)cc2)n1CC[C@@H](O)C[C@@H](O)CC(=O)O [Atorvastatin calcium salt, reference compound]
7 days, atorvastatin calcium salt 0.05% in diet (approximately 80-100 mg/kg/day), Compound (I) 10 μmol/kg/day
  reduction of total plasma cholesterol: 25%
7 days, atorvastatin calcium salt 0.05% in diet, Compound (I) 10 μmol/kg/day
  reduction of plasma triglycerides: 60%
[1]
  Chol (plasma total cholesterol), % Change compared to control group: −24%
  TG (plasma triglycerides), % Change compared to control group: −59%
